One molecule from article PMC340941 can be followed below.

No constants are given. Whether binding was seen depends on the method and setting. Tags and fused reporters may be left off the sequences shown.

This assay addresses T1, purified processed mouse Lefty1 protein (mouse) (UniProt Q64280).
T1 sequence: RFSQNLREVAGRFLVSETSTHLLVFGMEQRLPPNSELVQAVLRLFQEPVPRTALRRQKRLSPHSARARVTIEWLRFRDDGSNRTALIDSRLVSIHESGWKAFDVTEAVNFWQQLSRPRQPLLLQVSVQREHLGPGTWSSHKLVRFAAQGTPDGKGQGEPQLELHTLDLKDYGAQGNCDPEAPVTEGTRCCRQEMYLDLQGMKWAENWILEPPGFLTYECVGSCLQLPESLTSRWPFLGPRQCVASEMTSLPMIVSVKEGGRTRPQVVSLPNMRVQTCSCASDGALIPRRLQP
The assay is described as follows: co-IP; purified mLefty1 (10 μg/ml) mixed with soluble Cripto/His (5 μg/ml) or VEGF-D/His (5 μg/ml) in PBS; cross-linked with 1 mM DTSSP for 1 h on ice; mLefty1 immunoprecipitated with anti-mLefty1 antibody; anti-His blot (Figure 3D); both purified.

B1: purified mouse VEGF-D/His protein (ligand, UniProt P97946 94-210)
chain: FAATFYDTETLKVIDEEWQRTQCSPRETCVEVASELGKTTNTFFKPPCVNVFRCGGCCNEEGVMCMNTSTSYISKQLFEISVPLTSVPELVPVKIANHTGCKCLPTGPRHPYSIIRR
Turning to B1, the binding entry is “no binding (tested: 5 μg/ml)”.
